Consider 1 substance from PMC12004711.

Sequences of proteins named here, by UniProt entry; tags and fusion partners are left off. Residues count along the entry.
UniProt P15655, residues 10-154: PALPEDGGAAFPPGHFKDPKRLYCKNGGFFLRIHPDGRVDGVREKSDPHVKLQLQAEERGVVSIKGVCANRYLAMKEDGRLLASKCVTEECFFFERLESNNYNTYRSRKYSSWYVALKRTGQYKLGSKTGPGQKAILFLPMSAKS

This assay has as its target T1, Syndecan-4 (mouse (endogenous in eWAT)) (UniProt O35988).
T1 sequence (chain, heparan sulfate chains): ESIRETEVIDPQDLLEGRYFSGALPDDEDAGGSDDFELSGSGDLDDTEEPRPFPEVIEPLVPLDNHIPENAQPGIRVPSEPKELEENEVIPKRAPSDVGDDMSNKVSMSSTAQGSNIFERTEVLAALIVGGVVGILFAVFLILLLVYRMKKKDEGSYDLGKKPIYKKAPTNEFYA
Description: co-IP; eWAT total protein (500 ug) of AT-Sdc4 KO and WT mice fed STC or HFD for 14 weeks; anti-Sdc4 polyclonal antibody or IgG (5 ug/ml) at 4 C overnight; protein A/G Plus-Agarose beads 3 h at room temperature; five washes with ice-cold lysis buffer; Western blot. In general terms: Immunoblotting shows a protein as a band on a membrane.

Results are given in words; binding and its absence hold for the method and conditions named. Binding seen in cells or lysates may run through a third protein. Some results given as binding are weak or reduced against the parent protein; the word gives no strength.

“fibroblast growth factor 2 (from UniProt P15655 10-154) (ligand)”: the binding result was “binds”.
